Among the data in paper PMC6042396 are binding values, retold here.

Protein sequences, listed by entry. Tags and fused reporters are not part of them.
UniProt Q9H4A6: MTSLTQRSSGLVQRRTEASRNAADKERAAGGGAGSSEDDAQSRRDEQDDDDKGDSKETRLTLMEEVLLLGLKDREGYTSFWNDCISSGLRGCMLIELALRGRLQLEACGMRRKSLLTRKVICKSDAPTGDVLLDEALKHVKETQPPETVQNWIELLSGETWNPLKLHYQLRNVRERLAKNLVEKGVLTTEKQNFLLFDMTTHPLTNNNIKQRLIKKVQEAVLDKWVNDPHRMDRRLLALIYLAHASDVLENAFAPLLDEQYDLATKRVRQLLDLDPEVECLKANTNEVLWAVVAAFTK
UniProt O00506: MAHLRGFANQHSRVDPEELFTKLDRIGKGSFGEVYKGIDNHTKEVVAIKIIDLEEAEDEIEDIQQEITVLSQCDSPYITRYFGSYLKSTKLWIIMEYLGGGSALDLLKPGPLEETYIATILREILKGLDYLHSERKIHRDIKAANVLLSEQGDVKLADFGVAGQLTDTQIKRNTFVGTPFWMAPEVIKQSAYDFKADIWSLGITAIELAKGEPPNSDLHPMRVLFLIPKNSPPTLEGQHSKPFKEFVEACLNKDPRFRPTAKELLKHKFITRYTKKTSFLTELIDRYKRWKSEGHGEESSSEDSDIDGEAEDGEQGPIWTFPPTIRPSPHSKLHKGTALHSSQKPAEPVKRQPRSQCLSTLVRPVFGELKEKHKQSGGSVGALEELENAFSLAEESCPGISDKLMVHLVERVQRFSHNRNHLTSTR

These are yes or no findings as the source states them, for the method shown. For some of these results: Binding seen in cells or lysates may run through a third protein. Some binding calls cover weakened binding; strength is not graded here.

Assay [1] has as its target Myc-GOLPH3 (UniProt Q9H4A6). Kind of assay: co-IP; reciprocal IP: c-Myc antibody on rProtein A sepharose beads, 500 μg of total protein in cell lysis buffer, 4 h at 4 °C; western blot with Flag antibody. (In western blotting, separated proteins are transferred to a membrane and probed.)
For assay [2], the target named is His-STK25 (human) (UniProt O00506). Kind of assay: pull-down; His-tag pull-down: 10 μg of His-STK25 mixed with 10 μg of GST-GOLPH3 or GST, Ni-NTA agarose; western blot with anti-GST and anti-His tag; both purified.
The target in assay [3] is GST-GOLPH3 (UniProt Q9H4A6). Kind of assay: pull-down; GST pull-down: 10 μg of His-STK25 mixed with 10 μg of GST-GOLPH3 or GST, glutathione sepharose 4B beads; western blot with anti-GST and anti-His tag; both purified.
In assay [4] the target is Flag-STK25 (serine/threonine protein kinase 25) (human) (UniProt O00506). Briefly: co-IP; Flag antibody on rProtein A sepharose beads, 500 μg of total protein in cell lysis buffer, 4 h at 4 °C; western blot with c-Myc antibody.

“Flag-STK25 (serine/threonine protein kinase 25) (from UniProt O00506 1-426) (enzyme)”: in assay [1], the binding entry is recorded as “binds”.

With GST-GOLPH3 (from UniProt Q9H4A6 1-298), the binding result in assay [2] is given as “binds”.

With “His-STK25 (from UniProt O00506 1-426) (enzyme)”, in assay [3], the binding result is recorded as “binds”.

For Myc-GOLPH3 (from UniProt Q9H4A6 1-298), the binding entry in assay [4] is listed as “binds”.
